In publication doi:10.1101/2024.09.27.615457 (bioRxiv, 2024):
Results are given in words; binding and its absence hold for the method and conditions named. Binding seen in cells or lysates may run through a third protein. Some entries that bind do so weakly or less than the wild type. Tags and fused reporters may be left off the sequences shown.

The chains behind the UniProt entries cited, without tags or fusion partners.
UniProt Q9LET0: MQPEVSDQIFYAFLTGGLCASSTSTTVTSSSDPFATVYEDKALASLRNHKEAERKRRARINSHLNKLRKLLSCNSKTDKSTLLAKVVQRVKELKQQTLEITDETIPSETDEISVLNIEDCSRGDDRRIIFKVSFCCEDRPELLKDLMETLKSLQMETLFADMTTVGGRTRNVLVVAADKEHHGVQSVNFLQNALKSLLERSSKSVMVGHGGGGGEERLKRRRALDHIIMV

Target: T1, Flag-tagged HY5 (Arabidopsis) (UniProt O24646)
T1 sequence: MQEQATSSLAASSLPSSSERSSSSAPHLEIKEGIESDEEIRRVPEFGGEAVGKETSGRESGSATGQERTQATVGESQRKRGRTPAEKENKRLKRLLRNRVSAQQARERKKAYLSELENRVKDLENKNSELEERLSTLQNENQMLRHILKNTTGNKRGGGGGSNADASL
Assay: co-IP

Substance: HA-tagged bHLH107 (expressed in N. benthamiana) (from UniProt Q9LET0 1-230)
- binding: binds
